Results: US9212132B2, “(Meth)acrylic acid ester, activation energy ray curing composition, and inkjet recording ink” (Ricoh Company Ltd., priority 2011, dated 2015)

Experiment: Evaluation of odor (discomfort when smelling each ink)
Parameters: key: A: No smell was sensed.; B: Slight smell was sensed but it did not give discomfort.; C: Distinct odor gave discomfort.; Distinct odor gave significant discomfort
Conditions: ink: 950 mg monomer + 50 mg IRGACURE 907

Compound | Odor
C=CC(=O)OCC(COC(=O)N(CC)CC)OC(=O)C=C (stereo not shown) [G-3] | A
C=C(C)C(=O)OCCOC(=O)N(CC)CC [B-2] | A
C=C(C)C(=O)OCCOC(=O)N1CCOCC1 [D-2] | A
C=C(C)C(=O)OCC(CC)(COC(=O)C(=C)C)COC(=O)N(CC)CC [J-4] | A
C=CC(=O)OCCOC(=O)NCCCC [Commercial product (c), reference compound] | C
C=CC(=O)OCC(CC)(COC(=O)C=C)COC(=O)N(CC)CC [J-3] | A
C=C(C)C(=O)OCCN1CCOCC1 [Commercial product (e), reference compound] | C
C=CC(=O)OCCN1CCOCC1 [Commercial product (d), reference compound] | C
C=C(C)C(=O)OCC(COC(=O)N(CC)CC)OC(=O)C(=C)C (stereo not shown) [G-4] | A
C=CC(=O)OCCSCC [Ref. Syn. Ex. 1, 2-acryloxy ethylethyl sulfide, reference compound] | D
C=C(C)C(=O)OCCOc1ccccc1 [Commercial product (b), reference compound] | D
C=CC(=O)OCCOC(=O)N1CCCCC1 [E-1] | B
C=CC(=O)OC1CCN(C(=O)OCC)CC1 [F-1] | B
C=C(C)C(=O)OCCOC(=O)N1CCCCC1 [E-2] | A
C=C(C)C(=O)OCCSCC [Ref. Syn. Ex. 2, 2-methacryloxyethylethyl sulfide, reference compound] | D
C=C(C)C(=O)OC1CCN(C(=O)OCC)CC1 [F-2] | A
C=CC(=O)OCCOC(=O)N(CC)CC [B-1] | B
C=CC(=O)OCCOc1ccccc1 [Commercial product (a), reference compound] | D
C=CC(=O)OCCOC(=O)N1CCOCC1 [D-1] | B
